Source: patent US10272098B2, “Chelated drug delivery systems” (Drexel University, priority 2013, dated 2019)
Structures can show the parent of a compound that is named as a salt. At least one compound was matched to its structure with a doubt left.

Tested on: E. coli, S. aureus, and A. baumannii
Assay: Antibiofilm activity of MH released from complexes (XTT, SYTO 9)
Format: cell-based
Conditions: vs untreated control, P<0.05

How did the “antibiofilm activity (XTT assay of surviving bacteria)” value turn out when CN(C)c1ccc(O)c2c1C[C@H]1C[C@H]3[C@H](N(C)C)C(O)=C(C(N)=O)C(=O)[C@@]3(O)C(O)=C1C2=O [MH, Minocycline hydrochloride] was run?
The value was “significant antibiofilm activity”.
